Measured values from publication PMC5297781.
Results are given in words; binding and its absence hold for the method and conditions named. For some assays here: Binding seen in cells or lysates may run through a third protein. Some binding calls cover weakened binding; strength is not graded here. For some assays here: Tags and fused reporters may be left off the sequences shown.

Amino acid sequences for entries named in this document (tags omitted). Residues count along the entry.
UniProt O08808, residues 73-370: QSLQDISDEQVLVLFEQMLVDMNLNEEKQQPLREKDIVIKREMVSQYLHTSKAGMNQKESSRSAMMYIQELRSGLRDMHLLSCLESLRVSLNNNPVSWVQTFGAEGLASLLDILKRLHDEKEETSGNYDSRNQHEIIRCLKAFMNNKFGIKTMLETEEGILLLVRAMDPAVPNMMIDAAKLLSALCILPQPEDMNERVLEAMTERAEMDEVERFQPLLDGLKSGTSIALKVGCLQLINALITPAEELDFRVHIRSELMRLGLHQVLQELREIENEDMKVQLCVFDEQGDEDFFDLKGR

B1: Rif (1–195 aa), released from GST-Rif by thrombin (domain or fragment, UniProt Q9HBH0 1-195)
chain: MDAPGALAQTAAPGPGRKELKIVIVGDGGCGKTSLLMVYSQGSFPEHYAPSVFEKYTASVTVGSKEVTLNLYDTAGQEDYDRLRPLSYQNTHLVLICYDVMNPTSYDNVLIKWFPEVTHFCRGIPMVLIGCKTDLRKDKEQLRKLRAAQLEPITYMQGLSACEQIRAALYLECSAKFRENVEDVFREAAKVALSA
B2: endogenous Rif in HeLa cell lysate (protein, UniProt Q9HBH0 1-211)
chain: MDAPGALAQTAAPGPGRKELKIVIVGDGGCGKTSLLMVYSQGSFPEHYAPSVFEKYTASVTVGSKEVTLNLYDTAGQEDYDRLRPLSYQNTHLVLICYDVMNPTSYDNVLIKWFPEVTHFCRGIPMVLIGCKTDLRKDKEQLRKLRAAQLEPITYMQGLSACEQIRAALYLECSAKFRENVEDVFREAAKVALSALKKAQRQKKRRLCLLL

How the values were obtained:
[1] = target: GST-mDia1-G-DID (73–370 aa) (UniProt O08808); experiment: pull-down; GST-mDia1-G-DID on glutathione-Sepharose beads incubated with thrombin-released Rif loaded with GTP (compared with GDP), 4 °C, 1 h; washed three times with lysis buffer; immunoblot with anti-Rif; also with HEK293 cell lysate added; both purified
[2] = target: GST-mDia1-G-DID (73–370 aa) (UniProt O08808); experiment: pull-down; Rif activation assay: GST-mDia1-G-DID beads with lysate of serum-starved HeLa cells, treated or not with EGF, LPA, S1P, serum or inhibitors of p38 MAPK, PI3K or p42/44 MAPK; immunoblot with anti-Rif; only the target purified

Row | Binder | binding [1] | binding [2]
1 | B1 | binds | –
2 | B2 | – | binds
